According to US20150141489A1:
No constants are given. Whether binding was seen depends on the method and setting. In cells and extracts the contact can be indirect. Some entries that bind do so weakly or less than the wild type.

By UniProt entry, the sequences of proteins in these tests, tags left out. Where a name states a change or a piece, a line headed by the entry shows the natural chain unless it says otherwise. Chains listed by the source or under a name are the forms on record and can include a tag or linker.
UniProt Q16539: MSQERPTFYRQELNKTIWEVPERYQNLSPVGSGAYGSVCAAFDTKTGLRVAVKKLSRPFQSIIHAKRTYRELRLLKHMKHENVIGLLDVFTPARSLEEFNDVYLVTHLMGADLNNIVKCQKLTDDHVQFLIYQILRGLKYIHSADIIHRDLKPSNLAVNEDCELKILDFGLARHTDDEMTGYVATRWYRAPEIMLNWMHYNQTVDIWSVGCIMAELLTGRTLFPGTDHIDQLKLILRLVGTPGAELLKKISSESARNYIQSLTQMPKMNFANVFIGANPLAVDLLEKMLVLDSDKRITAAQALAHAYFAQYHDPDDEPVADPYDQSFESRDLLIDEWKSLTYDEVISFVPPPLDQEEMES
Mnk1 (Q9BUB5, form named): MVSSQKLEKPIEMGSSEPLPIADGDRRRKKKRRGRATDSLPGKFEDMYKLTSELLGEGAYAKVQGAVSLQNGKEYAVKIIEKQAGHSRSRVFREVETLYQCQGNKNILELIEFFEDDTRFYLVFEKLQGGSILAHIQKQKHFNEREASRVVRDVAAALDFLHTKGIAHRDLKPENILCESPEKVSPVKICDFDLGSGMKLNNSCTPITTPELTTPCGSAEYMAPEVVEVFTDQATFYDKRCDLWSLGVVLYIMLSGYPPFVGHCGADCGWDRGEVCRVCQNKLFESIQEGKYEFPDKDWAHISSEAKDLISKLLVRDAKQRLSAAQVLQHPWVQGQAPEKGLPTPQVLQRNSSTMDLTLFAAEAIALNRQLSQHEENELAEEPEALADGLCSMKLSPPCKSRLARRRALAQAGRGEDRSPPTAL

Molecular target: HA-p38α-MAPK (UniProt Q16539)
Experiment: co-immunoprecipitation with HA-p38α, HEK293 cells

With “Mnk1 (from UniProt Q9BUB5 1-424) (enzyme)” the binding was “binds”.
